Test results taken from the supplement of paper PMC10849652.
Some of the results follow.

Chains of the proteins cited; added tags and fusions are not shown. Lines headed by an entry give the natural chain unless they say otherwise; changes in a name come on top.
UniProt O60704: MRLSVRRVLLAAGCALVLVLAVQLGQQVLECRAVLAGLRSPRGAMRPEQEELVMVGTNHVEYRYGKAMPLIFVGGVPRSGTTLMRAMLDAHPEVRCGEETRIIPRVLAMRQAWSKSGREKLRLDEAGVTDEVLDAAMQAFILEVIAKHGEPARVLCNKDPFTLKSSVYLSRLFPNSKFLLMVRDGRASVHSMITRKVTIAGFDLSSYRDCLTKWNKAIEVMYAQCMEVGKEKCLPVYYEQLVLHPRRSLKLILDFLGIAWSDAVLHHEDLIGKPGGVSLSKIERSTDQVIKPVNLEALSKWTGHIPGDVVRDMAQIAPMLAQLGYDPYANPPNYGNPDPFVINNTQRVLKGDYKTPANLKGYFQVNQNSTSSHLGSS
UniProt P06753, whole entry, looked up: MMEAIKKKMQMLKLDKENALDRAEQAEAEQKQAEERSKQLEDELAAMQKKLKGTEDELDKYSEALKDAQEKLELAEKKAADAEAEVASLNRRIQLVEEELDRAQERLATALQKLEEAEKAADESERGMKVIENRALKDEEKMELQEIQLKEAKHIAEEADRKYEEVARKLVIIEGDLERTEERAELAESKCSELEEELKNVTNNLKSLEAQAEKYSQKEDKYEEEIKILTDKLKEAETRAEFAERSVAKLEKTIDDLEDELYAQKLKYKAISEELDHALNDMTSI
UniProt Q15785: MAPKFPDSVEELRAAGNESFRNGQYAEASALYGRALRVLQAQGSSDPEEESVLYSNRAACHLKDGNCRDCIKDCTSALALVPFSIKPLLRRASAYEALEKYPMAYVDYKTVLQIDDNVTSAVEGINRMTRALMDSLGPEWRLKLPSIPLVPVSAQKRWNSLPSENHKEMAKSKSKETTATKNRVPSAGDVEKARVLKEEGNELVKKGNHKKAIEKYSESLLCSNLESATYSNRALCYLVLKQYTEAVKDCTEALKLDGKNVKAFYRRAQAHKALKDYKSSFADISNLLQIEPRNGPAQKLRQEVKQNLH
UniProt Q6ZXV5: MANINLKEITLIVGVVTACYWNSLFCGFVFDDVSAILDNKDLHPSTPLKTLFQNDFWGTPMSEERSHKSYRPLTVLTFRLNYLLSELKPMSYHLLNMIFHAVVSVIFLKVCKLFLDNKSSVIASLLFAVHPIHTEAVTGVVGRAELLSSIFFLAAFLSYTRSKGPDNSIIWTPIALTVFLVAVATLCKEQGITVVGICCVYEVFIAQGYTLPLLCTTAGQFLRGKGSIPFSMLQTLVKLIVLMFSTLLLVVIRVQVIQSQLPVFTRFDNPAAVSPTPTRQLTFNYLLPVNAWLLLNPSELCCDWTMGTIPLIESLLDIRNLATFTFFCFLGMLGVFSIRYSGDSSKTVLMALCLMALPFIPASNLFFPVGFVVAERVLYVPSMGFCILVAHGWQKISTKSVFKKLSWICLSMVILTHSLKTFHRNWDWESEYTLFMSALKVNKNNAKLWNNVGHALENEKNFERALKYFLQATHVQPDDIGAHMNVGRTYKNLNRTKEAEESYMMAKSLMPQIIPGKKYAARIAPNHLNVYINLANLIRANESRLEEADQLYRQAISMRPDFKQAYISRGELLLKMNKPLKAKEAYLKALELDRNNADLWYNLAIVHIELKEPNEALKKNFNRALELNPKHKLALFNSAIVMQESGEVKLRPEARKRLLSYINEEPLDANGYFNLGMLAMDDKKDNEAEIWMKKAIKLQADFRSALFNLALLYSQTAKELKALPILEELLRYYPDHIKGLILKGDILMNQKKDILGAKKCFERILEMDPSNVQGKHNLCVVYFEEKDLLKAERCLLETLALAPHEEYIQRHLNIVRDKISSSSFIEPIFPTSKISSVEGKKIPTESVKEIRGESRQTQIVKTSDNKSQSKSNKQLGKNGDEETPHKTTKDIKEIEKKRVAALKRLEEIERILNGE
UniProt Q9NQ34: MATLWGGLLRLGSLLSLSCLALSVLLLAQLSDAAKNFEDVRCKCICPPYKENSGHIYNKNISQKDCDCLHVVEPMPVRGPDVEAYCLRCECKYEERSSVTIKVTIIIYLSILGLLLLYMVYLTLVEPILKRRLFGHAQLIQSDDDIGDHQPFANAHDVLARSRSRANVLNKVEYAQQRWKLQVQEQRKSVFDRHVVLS
UniProt Q5BJF2, whole entry, looked up: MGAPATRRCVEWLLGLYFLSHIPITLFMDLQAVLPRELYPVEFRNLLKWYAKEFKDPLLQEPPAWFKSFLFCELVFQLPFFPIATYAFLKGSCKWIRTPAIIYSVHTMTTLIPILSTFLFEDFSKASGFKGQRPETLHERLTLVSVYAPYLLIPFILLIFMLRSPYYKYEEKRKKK
UniProt Q13625: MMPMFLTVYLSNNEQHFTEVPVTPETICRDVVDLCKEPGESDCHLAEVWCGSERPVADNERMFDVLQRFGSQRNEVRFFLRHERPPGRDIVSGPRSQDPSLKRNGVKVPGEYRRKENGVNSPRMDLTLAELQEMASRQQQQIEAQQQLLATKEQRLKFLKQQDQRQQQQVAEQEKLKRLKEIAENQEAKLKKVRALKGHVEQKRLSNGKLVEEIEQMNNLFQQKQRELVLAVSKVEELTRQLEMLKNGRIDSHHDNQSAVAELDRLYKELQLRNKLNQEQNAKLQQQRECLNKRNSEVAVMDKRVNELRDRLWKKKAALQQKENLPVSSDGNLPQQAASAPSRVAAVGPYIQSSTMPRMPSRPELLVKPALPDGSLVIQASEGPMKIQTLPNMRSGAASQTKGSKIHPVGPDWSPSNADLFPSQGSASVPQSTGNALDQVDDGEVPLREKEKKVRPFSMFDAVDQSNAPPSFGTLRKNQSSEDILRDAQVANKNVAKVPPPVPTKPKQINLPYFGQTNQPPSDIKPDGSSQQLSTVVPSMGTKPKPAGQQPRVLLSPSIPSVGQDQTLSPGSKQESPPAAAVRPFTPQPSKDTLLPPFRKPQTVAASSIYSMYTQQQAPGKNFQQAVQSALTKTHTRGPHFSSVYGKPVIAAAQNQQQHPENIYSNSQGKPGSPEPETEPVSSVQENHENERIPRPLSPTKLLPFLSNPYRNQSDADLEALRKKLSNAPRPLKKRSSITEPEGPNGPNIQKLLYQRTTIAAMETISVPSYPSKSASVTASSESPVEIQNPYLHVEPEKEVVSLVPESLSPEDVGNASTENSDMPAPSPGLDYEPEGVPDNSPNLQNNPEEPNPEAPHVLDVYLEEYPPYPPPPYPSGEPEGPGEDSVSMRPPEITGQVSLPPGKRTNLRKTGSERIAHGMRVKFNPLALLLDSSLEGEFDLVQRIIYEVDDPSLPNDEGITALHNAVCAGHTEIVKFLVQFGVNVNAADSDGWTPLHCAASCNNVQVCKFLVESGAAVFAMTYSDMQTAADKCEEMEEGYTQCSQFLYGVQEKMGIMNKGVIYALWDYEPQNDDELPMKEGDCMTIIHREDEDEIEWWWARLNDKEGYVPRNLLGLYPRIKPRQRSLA
UniProt Q9H497: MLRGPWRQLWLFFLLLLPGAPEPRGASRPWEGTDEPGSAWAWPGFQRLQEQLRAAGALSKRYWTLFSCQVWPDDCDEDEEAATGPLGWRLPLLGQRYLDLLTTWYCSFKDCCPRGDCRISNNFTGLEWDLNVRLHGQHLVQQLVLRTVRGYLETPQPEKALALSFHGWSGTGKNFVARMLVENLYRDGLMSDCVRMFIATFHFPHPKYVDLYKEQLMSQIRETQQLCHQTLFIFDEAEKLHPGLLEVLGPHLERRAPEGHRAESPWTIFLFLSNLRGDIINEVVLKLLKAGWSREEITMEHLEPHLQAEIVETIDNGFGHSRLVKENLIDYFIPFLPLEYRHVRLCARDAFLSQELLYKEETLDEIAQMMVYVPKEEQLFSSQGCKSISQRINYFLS

How the values were obtained:
Assay in all cases: log2 fold change, soluble protein after heating vs DMSO (PISA); higher = thermal stabilisation; K562 lysate, 10 uM; active = over 0.2 and 3.5 SD of the protein, either way, in both replicates (recomputed)
[1] = compound: C1=CC=C(C=C1)[C@H](COC2=CC3=C(C=C2)NC(=O)N3)NC(=O)C4=CC=CN(C4=O)CC5=CC(=C(C=C5)F)F
Outline: (§1)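 Values give the log-two fold change in thermal stability against solvent controls, from duplicates. Crude K562 extract at 1 mg/mL protein, made by dounce homogenisation in PBS pH 7.4 with 1 mM MgCl2, was treated with 10 μM compound for 30 min. After 3 min heating across 48°C-58°C, aliquots were pooled, adjusted to 0.5% NP-40 at 4°C and centrifuged at 21,000xg for 90 min. The supernatant was measured by TMTpro 16plex LC-MS/MS with channel sums equalised.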

[2] = compound: CC1=C(SC2=C1C(=N[C@H](C3=NN=C(N32)C)CC(=O)N)C4=CC=C(C=C4)Cl)C
Outline: as §1

[3] = compound: CC1=C2C(=CC=C1)N=C(N(C2=O)C3=CC=CC=C3C)CN4C=NC5=C(N=CN=C54)N
Outline: as §1

[4] = compound: Cc1sc2c(c1C)C(c1ccc(Cl)cc1)=N[C@@H](CC(=O)OC(C)(C)C)c1nnc(C)n1-2
Outline: as §1

[5] = compound: c1ccc([C@@H]2C[C@H]2NC2CCNCC2)cc1
Outline: as §1

Measured: log2 fold change

TPST2 (UniProt O60704)
inactive: [1] -0.034 | [2] 0.021 | [3] -0.028 | [4] -0.054 | [5] -0.384

TPM3 isoform 2 (UniProt P06753)
inactive: [1] -0.02 | [2] 0.01 | [3] -0.025 | [4] -0.009 | [5] 0.056

TOMM34 (UniProt Q15785)
inactive: [1] -0.02 | [2] -0.001 | [3] 0.001 | [4] -0.003 | [5] 0.029

Two successive records out of the list so far, for reference:
TPST2 (UniProt O60704)
inactive: [1] -0.034 | [2] 0.021 | [3] -0.028 | [4] -0.054 | [5] -0.384

TPM3 isoform 2 (UniProt P06753)
inactive: [1] -0.02 | [2] 0.01 | [3] -0.025 | [4] -0.009 | [5] 0.056

(listing goes on)

TMTC3 (UniProt Q6ZXV5)
inactive: [1] -0.073 | [2] -0.002 | [3] 0.02 | [4] 0.035 | [5] 0.053

TMEM9B (UniProt Q9NQ34)
inactive: [1] -0.031 | [2] -0.007 | [3] 0.051 | [4] 0.052 | [5] 0.046

TMEM97 (UniProt Q5BJF2)
inactive: [1] 0.048 | [2] 0.015 | [3] -0.016 | [4] -0.081 | [5] -0.153

TP53BP2 isoform 3 (UniProt Q13625)
inactive: [1] -0.006 | [2] -0.017 | [3] 0.014 | [4] 0.003 | [5] 0.099

TOR3A (UniProt Q9H497)
inactive: [1] -0.009 | [2] -0.025 | [3] 0.013 | [4] 0.018 | [5] -0.008

TMEM245 (UniProt Q9H330)
inactive: [1] -0.012 | [2] -0.023 | [3] 0.03 | [4] -0.068 | [5] -0.042
